# These are yes or no findings as the source states them, for the method shown. In cells and extracts the contact can be indirect. Binding can be weak; no strength is given.
# B1: Aurora A (protein, UniProt A5GFW1 1-402)
# chain: MDKCKENCISGLKTTVPPGDGPKRVPVTQHFPAQHLPSANSGQAQRVLCPSNSSQRLPSHTQKLVSSHKPVQNLKQKQSQATSGPRPVSRPLSNTQQSEQPQPAAPGNNPEKEAASKQKNEESKKRQWALEDFEIGRPLGKGKFGNVYLAREKQSKFILALKVLFKTQLEKAGVEHQLRREVEIQSHLRHPNILRLYGYFHDATRVYLILEYAPLGAVYRELQKLSKFDEQRTATYITELANALSYCHSKRVIHRDIKPENLLLGSAGELKIADFGWSVHAPSSRRTTLCGTLDYLPPEMIEGRMHDEKVDLWSLGVLCYEFLVGKPPFEANTYQETYKRISRVEFTFPDFVPEGARDLISRLLKHNPSHRPTLKEVLEHPWITANSKPASSHKKESTSKQP
# Target: P21-activated kinase 1 (pig (endogenous in porcine oocytes))
# Test: co-IP; lysate of 700 porcine oocytes per group (500 µL lysis buffer) incubated with 3 µL anti-PAK1 antibody at 4 °C overnight, protein A and G beads, immunoblotting; IP/Co-IP kit (Absin); oocytes during the MI-MII transition
binder,measurement,value
B1,binding,binds

# — paper PMC10886677
